Among the data in PMC5837800 are binding values, retold here.

These are yes or no findings as the source states them, for the method shown.

The target of the test is recombinant P. falciparum phosphoethanolamine-N-methyltransferase (P. falciparum) (UniProt Q8IDQ9). In words: SEC; 4 mg purified protein on HiPrep 16/60 Sephacryl S-200 (120 ml), 50 mM NaH2PO4, 150 mM NaCl, pH 8.0, 0.5 ml/min, calibrated column; both purified. (SEC sorts molecules by how far they enter the pores of the column.)

B1: recombinant P. falciparum phosphoethanolamine-N-methyltransferase (enzyme, UniProt Q8IDQ9 1-266)
chain: MTLIENLNSDKTFLENNQYTDEGVKVYEFIFGENYISSGGLEATKKILSDIELNENSKVLDIGSGLGGGCMYINEKYGAHTHGIDICSNIVNMANERVSGNNKIIFEANDILTKEFPENNFDLIYSRDAILHLSLENKNKLFQKCYKWLKPTGTLLITDYCATEKENWDDEFKEYVKQRKYTLITVEEYADILTACNFKNVVSKDLSDYWNQLLEVEHKYLHENKEEFLKLFSEKKFISLDDGWSRKIKDSKRKMQRWGYFKATKN
On to B1, for which the binding entry is “no binding”.
